According to patent publication US7375074B2 (priority 2001, dated 2008):

Test: general procedure: Fmoc solid-phase peptide synthesis; Fmoc-Leu-O-Clt resin; DCC/HOBt; HBTU for one peptide
Conditions: whole synthesis, scale 0.25 mmol

Q: Which isolated mass does the source give for “Fmoc-Trp-Tyr-Lys-His-Val-Ala-Ser-Pro-Arg-Tyr-His-Thr-Val-Gly-Arg-Ala-Ala-Gly-Leu-Leu-Met-Gly-Leu” here?
A: The isolated mass was 9.7 mg.
